Results on one substance are retold here after patent US20110105397A1 (priority 2009, published 2011).

The nature of the data set: general procedure: Fmoc solid-phase peptide synthesis; NovaSyn TGR; HBTU/NMM. The conditions noted are these: whole synthesis, scale 0.1 mmol.

“TKFTLSLDVPTNIMNLLFNIAKAKNLRCQAAANAHLMAQI-NH2” came in with a crude yield of 92%.
